Results deposited as PubChem BioAssay AID1259254 (NCATS, 2017).
Aim: 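Gene knock-downs that lead to re-replication, shown by excess G2 DNA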 (primary screen). Cell system: human HCT116 colorectal cancer cells. Knock-down reagent: single siRNA against human genes. Time to read-out: 3 days. Detection: 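Nuclei stained with Hoechst and imaged; cell-cycle phase assigned by DNA content; G2 share scaled per plate, non-targeting siRNA 0%, GMNN siRNA 100%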. Scale: G2 robust z-score and G2 cells, % of GMNN control: higher = more G2 cells, more excess DNA replication; raw share of cells in G2: higher = larger share of cells with G2 DNA content. Call rule: 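An siRNA counts as active if its G2 robust z-score lies at least 5 MADs above the screen median; here such calls match roughly 38% of GMNN control or more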.
In all, the deposit lists about 59,000 reagents; shown is an unselected part. About 1,550 of all reagents (2.6%) were called active. 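G2 share is only a proxy for re-replication; each gene was hit by three separate siRNAs, and active genes were retested.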 Raw values vary from plate to plate and are shown uncorrected. A number with no mark means an inactive call. The numbers tell different reagents against one gene apart. No sequences are given here. Not given: the amount of reagent.

target gene	siRNA no.	G2 robust z-score	G2 cells, % of GMNN control	raw share of cells in G2 (%)
PUS3	1	-0.521	-0.701	3.94
PUS3	2	-0.893	-3.32	3.56
PUS3	3	1.15	11	10
PSG6	1	3.01	24.1	15.2
PSG6	2	-0.994	-4.03	2.63
PSG6	3	0.327	5.27	5.26
MSANTD1	1	0.689	7.82	6.67
MSANTD1	2	0.826	8.78	7.1
MSANTD1	3	2.58	21.2	12.7
CA11	1	8.55 (active)	63.2	27.5
CA11	2	-0.295	0.891	5.02
CA11	3	-0.103	2.24	5.87
BRIP1	1	2.95	23.7	13.6
BRIP1	2	-0.401	0.143	4.25
BRIP1	3	-0.754	-2.34	4.46
PCDHB12	1	-0.267	1.09	6.91
PCDHB12	2	-0.837	-2.92	3.39
PCDHB12	3	2.77	22.4	13.7
DESI2	1	-0.467	-0.316	3.73
DESI2	2	2.83	22.9	13.2
DESI2	3	0.195	4.34	4.62
OCIAD1	1	-0.754	-2.34	2.77
OCIAD1	2	0.022	3.12	5.59
OCIAD1	3	-0.0249	2.79	4.12
LOC401123 (retired record)	1	2.48	20.4	11.2
LOC401123 (retired record)	2	0.267	4.85	5.44
LOC401123 (retired record)	3	-1.06	-4.49	2.93
HAPLN2	1	-0.761	-2.39	2.07
HAPLN2	2	-0.897	-3.35	3.12
HAPLN2	3	1.22	11.6	9.78
TPTE2P1	1	1.14	11	7.93
TPTE2P1	2	0.346	5.4	5.23
TPTE2P1	3	-0.00818	2.91	3.97
SNRNP40	1	-0.963	-3.81	1.9
SNRNP40	2	4.72	36.2	18.9
SNRNP40	3	-0.465	-0.303	4.63
NCBP2	1	-1.22	-5.63	4.11
NCBP2	2	10.5 (active)	77	29.9
NCBP2	3	-0.518	-0.677	3.63
RPSAP47	1	5.85 (active)	44.2	18.9
RPSAP47	2	2.4	19.8	12
RPSAP47	3	-0.747	-2.29	3.65
ACER1	1	1.62	14.4	11.1
ACER1	2	1.47	13.3	11.8
ACER1	3	-1.1	-4.77	2.68
HSD17B8	1	-0.777	-2.5	3.33
HSD17B8	2	0.674	7.71	8.85
HSD17B8	3	-0.133	2.03	5.15
ATXN1	1	0.434	6.02	7.05
ATXN1	2	1.45	13.1	9.7
ATXN1	3	0.127	3.86	5.43
TLE5	1	-0.764	-2.41	2.5
TLE5	2	-0.418	0.0285	4.86
TLE5	3	-0.742	-2.25	2.29
BPNT1	1	1.75	15.2	9.75
BPNT1	2	-0.808	-2.71	3.49
BPNT1	3	1.22	11.5	6.97
XPNPEP3	1	-0.0735	2.45	6.63
XPNPEP3	2	0.525	6.66	6.67
XPNPEP3	3	0.169	4.16	5.81
CHM	1	-0.186	1.66	5.6
CHM	2	2.48	20.4	11.1
CHM	3	-1.25	-5.8	2.89
IAH1	1	0.0796	3.53	4.93
IAH1	2	-0.123	2.1	3.86
IAH1	3	-0.257	1.16	3.62
CDY2A	1	1.62	14.4	10.6
CDY2A	2	-0.0807	2.4	4.02
CDY2A	3	0.518	6.61	7.7
DNMT3B	1	-0.578	-1.1	4.57
DNMT3B	2	0.204	4.4	6.6
DNMT3B	3	-0.52	-0.691	3.86
HEPH	1	-0.42	0.0103	3.2
HEPH	2	0.761	8.32	8.13
HEPH	3	-1.23	-5.67	3.06
SMIM29	1	0.536	6.74	5.44
SMIM29	2	0.355	5.46	4.94
SMIM29	3	0.301	5.09	5.42
STPG3	1	0.00748	3.02	4.79
STPG3	2	1.84	15.9	9.45
STPG3	3	1.02	10.2	6.57
USHBP1	1	-0.93	-3.57	2.92
USHBP1	2	-0.289	0.934	3.73
USHBP1	3	-0.736	-2.21	1.74
PI4KB	1	-0.337	0.595	5.8
PI4KB	2	0.744	8.2	6.91
PI4KB	3	0.346	5.4	7.23

Part of the list above, reformatted.
{"target gene": "SMIM29", "siRNA no.": 2, "G2 robust z-score": 0.355, "G2 cells, % of GMNN control": 5.46, "raw share of cells in G2 (%)": 4.94}
{"target gene": "SMIM29", "siRNA no.": 3, "G2 robust z-score": 0.301, "G2 cells, % of GMNN control": 5.09, "raw share of cells in G2 (%)": 5.42}
{"target gene": "STPG3", "siRNA no.": 1, "G2 robust z-score": 0.00748, "G2 cells, % of GMNN control": 3.02, "raw share of cells in G2 (%)": 4.79}
{"target gene": "STPG3", "siRNA no.": 2, "G2 robust z-score": 1.84, "G2 cells, % of GMNN control": 15.9, "raw share of cells in G2 (%)": 9.45}
{"target gene": "STPG3", "siRNA no.": 3, "G2 robust z-score": 1.02, "G2 cells, % of GMNN control": 10.2, "raw share of cells in G2 (%)": 6.57}
